Among all 6,900 compounds or so, fewer than 10 were called active. The call rests on the fitted dose curve; in most records, active means well fitted curve in the direction sought with a large enough effect; inconclusive means small, poorly fitted or top-dose-only effect, or another doubt; inactive means no such curve, though single readings can be large or run the other way. The list shows a part of the results.
The molecules below were run against Metallo-beta-lactamase type 2 (Klebsiella pneumoniae) (UniProt C7C422) (assay: qHTS to identify inhibitors of the New Delhi Metallo-beta-lactamase (NDM): primary screen against the NCATS Gemini Collection). Conditions: NDM-1 enzyme, meropenem hydrolysis, absorbance 300 nm; at 38.4 µM (top of the series) unless noted.
Outline: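 NDM-1 at 2 nM final in 50 mM HEPES pH 7.0, 1 uM ZnSO4, 0.01% Tween20, preincubated >30 min with compound. Meropenem 50 uM final added; absorbance at 300 nm after 30 min.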
Further: % of control where 0% means no effect.

The chains behind the UniProt entries cited, without tags or fusion partners. Where a name states a change or a piece, a line headed by the entry shows the natural chain unless it says otherwise.
UniProt C7C422: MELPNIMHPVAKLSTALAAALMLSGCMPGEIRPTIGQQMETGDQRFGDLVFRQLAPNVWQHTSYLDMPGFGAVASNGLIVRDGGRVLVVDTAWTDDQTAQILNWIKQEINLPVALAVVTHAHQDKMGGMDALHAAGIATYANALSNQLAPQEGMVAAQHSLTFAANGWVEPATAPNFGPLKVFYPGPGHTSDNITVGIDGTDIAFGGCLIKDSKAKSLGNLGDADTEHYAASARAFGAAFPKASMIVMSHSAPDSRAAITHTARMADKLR

Activity % (negative = inhibition), inactive:
COc1ccccc1CN1CCC(N2CC3CCCN3C2=O)CC1 (stereo not drawn) 0.519% [at 57.5 µM]
Cc1noc(C)c1[S+](=O)([O-])N(C)Cc1ccc(-c2ccccc2)cc1 1.01%
O=C(NC1C[C@H]2CC[C@@H](C1)N2C(=O)c1ccn[nH]1)c1ccncc1 (stereo partly drawn) 6.55%
COc1cccc(-c2cc(C(=O)N3CCN(c4ncccn4)CC3)c3cnn(C)c3n2)c1 16.6%
COCCn1c2c(c(=O)n1-c1ccccc1)CCN(C(=O)c1cc3ccccc3n1C)C2 54.7% [at 57.5 µM]
FC1(F)CN[C@H](c2nnc(C3CC3)o2)C1 15.1%
CC(CCc1ccccc1)NC(=O)CCn1ccn2nc3c(c2c1=O)CCCC3 (stereo not drawn) 12.2%
COc1ccc(-c2ccc3ncc(Nc4ccncc4)n3n2)cn1 8.16% [at 57.5 µM]
Cn1cnc(S(=O)(=O)N2CC(N(C3CCOCC3)S(C)(=O)=O)C2)c1 2.55%
CCC1CN(Cc2nc(CCOC)no2)CCC(=O)N1Cc1ccccc1 (stereo not drawn) -0.144%
COCC(=O)N1CCN2C(=O)N(C)C[C@H]2C1 -1% [at 77.1 µM]
COc1ccc(CNC(=O)C[C@@H]2O[C@H](CNC(=O)NC(C)C)[C@@H](O)[C@H]2O)cc1 29.8% [at 57.5 µM]
N#Cc1cccc(CN2CCCC2=O)c1 -5.73%
CC(C)(C)CN[C@@H](Cn1cc(F)c(=O)[nH]c1=O)C(=O)O -0.465% [at 77.1 µM]
O=[S+]([O-])(c1cccs1)N1CCN(c2nc3ncccc3o2)CC1 18.8%
COCC(=O)NC[C@H]1OC[C@@H](NC(C)C)[C@@H]1O -6.42% [at 77.1 µM]
Cc1cnn(C(C)C(=O)N2CCC3(CCC(=O)N(C4CC4)C3)CC2)c1 (stereo not drawn) -0.125%
C[C@@H]1CN(C[C@@H]2CN(C(=O)c3ccc(Cl)o3)C[C@@H]2CO)C[C@H](C)O1 -7.7%
CN(Cc1cccn1C)C(=O)c1ccc(Cl)nc1 0.195% [at 57.5 µM]
O=S(=O)(c1ccc(F)cc1)N1CCCC(CN2CCOCC2)CC1 (stereo not drawn) -1.19%
COC(=O)Nc1cc(-c2ccncc2)nn1C 0.145% [at 57.5 µM]
O=C(NCc1ccc2c(c1)OCO2)C1CCN(c2cn[nH]c(=O)c2)C1 (stereo not drawn) 16.5%
Cc1cnc(-c2ccccc2)n1CCNC(=O)CCC1CCCC1 -0.514%
O=C(C[C@@H]1C[C@H]2O[C@H](CNC3Cc4ccccc4C3)[C@@H](O)[C@H]2O1)N1CCC(F)(F)C1 32.3% [at 57.5 µM]
COc1cccc(-c2noc(CN3CCC(c4nc(-c5cccn5C)no4)C3)n2)c1OC (stereo not drawn) 0.66%
O=C(Nc1ccccc1F)N1CC(Oc2cccc(-c3nc(-c4ccccc4)no3)c2)C1 4.92%
CC(C)N(Cc1nccn1C)C(=O)CC(c1ccccc1)c1ccccc1F (stereo not drawn) 23%
COc1cc(OC)cc(C(=O)NCC2CCCN(C(=O)CCNC(C)=O)C2)c1 (stereo not drawn) 1.73%
O=C(c1ccccc1)N1CC2(CCNC2)OCc2ccccc21 (stereo not drawn) 0.739%
CC(=O)NC[C@H]1OC[C@@H](NCC(C)(C)C)[C@@H]1O -0.105% [at 77.1 µM]
O=S(=O)(NCC1(COc2cnccn2)C[C@@H](O)[C@@H](O)C1)c1ccc(F)cc1 (stereo partly drawn) -5.86% [at 57.5 µM]
Cc1nc2cnccn2c1C(=O)N1CCC(C#N)CC1 7.45% [at 57.5 µM]
C[C@@H]1CN(C(=O)NCC2CCCCC2)CC[C@@]1(O)C1CCOCC1 -2.53%
Cc1ccc2nc(C(NC(=O)C3CCN(CC(N)=O)CC3)C(C)C)[nH]c2c1 (stereo not drawn) -0.481%
Cc1nccn1CCC(NC(=O)c1cn(CCN)nn1)c1ccccc1 (stereo not drawn) -1.6%
COc1ccc(C(=O)N2CCN(c3nnc4ccccn34)CC2)cc1OC 0.836%
CCOC(=O)C(Cc1cccc(N2CCN(C(=O)OC(C)(C)C)CC2)c1)OC (stereo not drawn) 0.858%
CC(=O)c1ccc(NC(=O)N[C@H]2CCN3C(=O)[C@@H](Cc4ccccc4)NC(=O)[C@H]23)cc1 13.7% [at 57.5 µM]
CC(C)Cc1nnc(NC(=O)C[C@H]2NC(=O)c3ccccc3NC2=O)s1 -1.18%
CC(=O)Nc1cccc(-c2ccnc(-c3nnc(C)n3Cc3ccccc3)c2)c1 3.84% [at 57.5 µM]
O=C1C(N2CCN(Cc3ccc[nH]3)CC2)CCN1CCc1ccccc1 (stereo not drawn) -8.25%
CC(C)CNC(=O)c1nc(-c2ccc(Cl)cc2)c2cnccn12 4.98% [at 57.5 µM]
CCN1C(=O)CCc2cc(NC(=O)c3ccc(F)cc3)ccc21 10.2%
CN(C)[C@H]1CCN(C(=O)Cc2cn(C)c3ccccc23)C[C@H]1CCC(=O)O 8.7%
O=C1NC2(CCN(C(=O)c3ccc4c(c3)OCO4)C2)Oc2ccccc21 (stereo not drawn) 9.35%
Cc1cccc(C(=O)N2CCCC(c3nnnn3-c3ccccc3)C2)c1 (stereo not drawn) 3.19%
CCC1CN(C(=O)c2ccc(NCc3cnn(CC)c3)nc2)CCN1C(C)C (stereo not drawn) 1.35%
CO[C@H]1C[C@@H](O)C12CCN(C(=O)CCc1ccc(-c3cccs3)o1)CC2 12.1%
COc1cccc(CN2CCOC[C@H](Oc3ccc(C(F)(F)F)cn3)C2)c1 -0.546% [at 57.5 µM]
Cc1cnc(CC2CCN(S(=O)(=O)c3ccc4c(c3)CCC4)CC2)n1CC1CC1 12.7%
O=C([C@@H]1C[C@H](F)CN1S(=O)(=O)Cc1ccccc1Cl)N1CCCCC1 1.06%
COc1cncc([C@@H](NC(=O)CCc2c(C)noc2C)C2CC(O)C2)c1 (stereo partly drawn) 3.81%
CNC(=O)c1ccc(CN2CC3(CCN(C(C)=O)CC3)CC2C(=O)O)o1 (stereo not drawn) 40.2%
CCN(Cc1noc(C)n1)C(=O)c1coc(COc2ccc3c(c2)OCO3)n1 0.976%
O=C1N[C@H](CC(=O)N2CCN(Cc3ccccc3Cl)CC2)C(=O)Nc2ccccc21 0.0445%
COC(=O)N1CC(CN2C(=O)c3c(c(C)nn3-c3ccccc3)C2C)C1 (stereo not drawn) 4.48%
CSCc1noc(Cn2nc(C)c3ccccc3c2=O)n1 -1.17%
Cc1cnc(CCNS(=O)(=O)c2cccc(F)c2)n1Cc1ccccc1 12.9%
O=C1N(Cc2ccc(F)c(F)c2)CCCC12CCN(c1nc3ccccc3o1)C2 (stereo not drawn) 0.978%
COc1ccc(CNC(=O)[C@@H]2CCC[C@@H](NC(=O)C3CC3)CN(C)C(=O)C2)cc1 0% [at 57.5 µM]
COc1cccc([C@@H]2CN(C(=O)c3cc(C)oc3C)C[C@H]2C(=O)O)c1OC 1.74%
COc1ccc(-n2nc3n(c2=O)CCN(C(=O)c2ccccc2F)C3)cc1 14.8%
O=S(=O)(c1cccc(F)c1)N1CC[C@@H]2COCCN(Cc3ccccc3)[C@@H]2C1 -0.511%
O=C(NCc1nnc2cc(-c3nc(C4CC4)no3)ccn12)C1(c2ccccc2)CC1 5.22%
CCc1nc2c(c(-c3ccc(Cl)cc3)n1)CCN(Cc1ccnn1C)CC2 2.26%
C[S+](=O)([O-])N1CCC2(CC1)C(=O)NN=C2c1ccccn1 27.7% [at 57.5 µM]
CN1C[C@@H](NC(=O)CC(C)(C)CC(=O)O)C[C@H]1c1nc(-c2ccc3c(c2)OCO3)no1 16.1% [at 57.5 µM]
Cc1cc(=O)n(CC(=O)NCc2ccccc2Cl)c(N(C)Cc2ccccc2)n1 4.06%
C[S+](=O)([O-])N1CC2(Cc3ccccc31)CN(C(=O)NC1CCCC1)C2 -2.88%
CN(C)C[C@H]1C[C@@H](CO)CN(C(=O)c2csc(Cc3ccccc3)n2)C1 6.51%
CCC(C)NC(=O)N1CC(c2nc(CCOCC3CCOCC3)no2)C1 (stereo not drawn) 4.98%
COc1cccc(CC(=O)NCc2ccc(Cl)s2)c1 -7%
CCNc1nccc(N2CCC(CC(=O)N3CCN(c4ccccc4F)CC3)CC2)n1 25.4%
CN(Cc1cccc(N2CCN(Cc3c(Cl)ccc(Cl)c3Cl)CC2)c1)[S+](C)(=O)[O-] 17.3%
CCNC(=O)CN1CCC(=O)N(Cc2ccc(F)cc2)C(C(C)C)C1 (stereo not drawn) 3.86%
O=C(Nc1nn(Cc2ccccc2)c2cccc(N3CCOCC3)c12)C1CCC1 43.7%
O=C(c1cccn2cncc12)N1CCOCC1 14% [at 57.5 µM]
COc1nc2nc(CC3CC3)n(C)c2cc1-c1ccc(O)c(F)c1 23.9% [at 57.5 µM]
NC(=O)[C@@H](Cc1c[nH]c2ccccc12)NC(=O)[C@H]1CN(C(=O)C2CCNCC2)CCN1C(=O)N1CCOCC1 39.9%
C[C@]1(CO)C2CC[C@@H](O)[C@@H](CC(=O)N3CCC[C@H]3CO)[C@]2(C)CC[C@H]1OC(=O)Nc1cccc(F)c1 (stereo partly drawn) -10.5%
COc1ccc(C(=O)N2CCN(c3cc(-c4cccs4)[nH]n3)CC2)cc1OC 14.6%
COc1ccc(S(=O)(=O)NCCNc2cc(C)nc3ccnn23)cc1 14.3%
Cc1nc(-c2cn(C3CCCN(C(=O)c4cccc(Br)c4)C3)nn2)no1 (stereo not drawn) 1.3%

6 records drawn at random from those above:
Activity % (negative = inhibition), inactive:
CN1C[C@@H](NC(=O)CC(C)(C)CC(=O)O)C[C@H]1c1nc(-c2ccc3c(c2)OCO3)no1 16.1% [at 57.5 µM]
O=S(=O)(NCC1(COc2cnccn2)C[C@@H](O)[C@@H](O)C1)c1ccc(F)cc1 (stereo partly drawn) -5.86% [at 57.5 µM]
Cc1nc2cnccn2c1C(=O)N1CCC(C#N)CC1 7.45% [at 57.5 µM]
COc1ccccc1CN1CCC(N2CC3CCCN3C2=O)CC1 (stereo not drawn) 0.519% [at 57.5 µM]
CNC(=O)c1ccc(CN2CC3(CCN(C(C)=O)CC3)CC2C(=O)O)o1 (stereo not drawn) 40.2%
CN(C)C[C@H]1C[C@@H](CO)CN(C(=O)c2csc(Cc3ccccc3)n2)C1 6.51%
